Experimental data from patent publication US9539321B2, “HMGB1-derived peptides enhance immune response to antigens” (The Regents of the University of California, priority 2010, dated 2017).
Not every detail of the peptide structures is certain; ends, links or a residue may be inferred. Where a SMILES comes first, the peptide text is derived from it. The star is where a group is joined. Biotin = O=C1N[C@H]2[C@H](CS[C@H]2CCCCC(=O)*)N1

What was measured:
[1] = Intravenous administration of Hp91, serum cytokines by ELISA; format: in vivo, C57BL/6 mice; details: i.v. 10 or 100 μg, within 2 h of injection, rising further over 24 h
[2] = test system: antigen-specific IFN-γ secreting T cells; experiment: IFN-γ ELISPOT of splenocytes from immunized mice; format: in vivo, C57BL/6 mice
Protocol: Female C57BL/6 mice 8-12 weeks of age were used for most experiments. All mice were purchased from Charles River Laboratories (Boston, Mass., USA) and housed at the Moores UCSD Cancer Center animal facility. All animal studies were approved by the Institutional Animal Care and Use Committee of UCSD and were perfolined in accordance with the institutional guidelines. For most experiments, mice were immunized s.c. with 50 μg of SIINFEKL (OVA-I) peptide (SEQ ID NO: 45) and 50 μg of ISQAVHAAHAEINEAGR (OVA-II) peptide (SEQ ID NO: 46). The OVA peptide was co-administered with either Hp91 (30 to 500 μg) or PBS (negative control). For some experiments, a protein vaccine group was included, wherein 500 μg of Hp91 was co-administered with 100 μg of LPS-free OVA protein. As a positive control, mice were immunized s.c. with OVA peptide(s) or protein in Incomplete Freund's Adjuvant “IFA” (Sigma-Aldrich, St. Louis, Mo., USA). If not otherwise indicated, mice were immunized and boosted two weeks later and spleens and blood were collected 10-14 days after the final immunization.
Single cell suspensions of splenocytes were prepared by mechanical disruption and separation through a 70 μm nylon cell strainer (BD Biosciences, Franklin Lakes, N.J., USA). Red blood cells were lysed using ammonium chloride buffer (Roche Diagnostics, Indianapolis, Ind., USA) and the splenocytes were subsequently resuspended in complete medium (RPMI 1640 with 10% FBS, L-glutamine, penicillin, streptomycin, and HEPES). in some experiments, CD4+ and CD8+ cells were depleted from bulk splenocyte populations using anti-CD4 or anti-CD8α conjugated microbeads (Miltenyi-Biotec, Auburn, Calif., USA) according to the manufacturer's instructions.
Freshly isolated splenocytes were plated in duplicate to wells of a nitrocellulose bottom enzyme-linked immunospot (ELISPOT) plate (Millipore, Millerica, Mass., USA) that had been previously coated overnight with 5 μg ml^−1 monoclonal anti-mouse IFN-γ antibody (Mabtech, Stockholm, Sweden). Splenocytes were cultured overnight at 37° C. with 2.5 μg ml^−1 SIINFEKL (OVA-I) peptide, 2.5 μg ml^−1 ISQAVHAAHAEINEAGR (OVA-II) peptide, or left unstimulated (medium only). After 18 h, culture supernatants were collected for cytokine analysis and ELISPOT plates were developed using 1 μg ml^−1 biotinylated anti-mouse IFN-γ antibody (Mabtech), Streptavidin-HRP (Mabtech), and TMB Substrate (Mabtech). The plate was scanned and the spots were counted using an automated ELISpot Reader System (CTL ImmunoSpot, Shaker Heights, Ohio, USA).
Mice were immunized s.c. with 50 μg of SIINFEKL peptide. The SIINFEKL peptide was co-administered with either PBS, Hp91 (250 μg), or scrambled Hp91 (250 μg). Peptides were dissolved in PBS for all immunizations, Mice were boosted two weeks later and spleens and blood were collected one week after the final immunization. Single cell suspensions of splenocytes were prepared by mechanical disruption and separation through a […] nylon cell strainer (BD Biosciences). Red blood cells were lysed using ammonium chloride buffer (Roche Diagnostics, Indianapolis, Ind.) and the splenocytes were subsequently resuspended in RPMI 1640 medium (Invitrogen) supplemented with 10 mmol HEPES (GIBCO-BRL), penicillin (100 U/mL)—streptomycin (100 μg/mL)—glutamine (2 mM) (GIBCO-BRI.), arid 5% (vol/vol) fetal calf serum (Omega).
Freshly isolated splenocytes were plated in duplicate to wells of a nifrocellulose bottom enzymelinked immunospot (ELISPOT) plate (Millipore, NAillerica, Mass., USA) that had been previously coated overnight with 5 μg ml^−1 monoclonal anti-mouse IFN-γ antibody (Mabtech, Stockholm, Sweden). Splenocytes were cultured overnight at 37° C., with 2.5 μg ml^−1 SIINFEKL peptide, 5 μg ml^−1 concanavalin A positive control (Sigma), or left unstimulated (medium only). […]

[3] = test system: splenocytes; experiment: IL-2 / IL-4 secretion of splenocytes from immunized mice by ELISA; format: in vivo, C57BL/6 mice
Protocol: Splenocytes were cultured overnight with 2.5 μg ml^−1 OVA-I peptide, 2.5 μg ml^−1 OVA-II peptide, 5 μg ml^−1 concanavalin A positive control (Sigma), or left unstimulated (media only). After 18 h, cell culture supernatants were collected and analyzed for the presence of IL-2 and IL-4 by ELISA (eBioscience).
(§1) To measure cytokine release from immunized mice, splenocytes were cultured overnight with 2.5 μg ml^−1 SINFEKI: peptide, 5 μg ml^−1 concanavalin A positive control (Sigma), or left unstimulated (medium only). After 18 h, cell culture supernatants were collected and analyzed for the presence of IL-2 by ELISA. (eBioscience).
as §1, with “SIINFEKL” for “SINFEKI:”, “(media” for “(medium”, “ELISA” for “ELISA.”

[4] = test system: OVA protein; experiment: Antigen-specific antibody production by ELISA; format: in vivo, mice
[5] = test system: Immature human DCs; experiment: Confocal microscopy of peptide binding/uptake; format: cell-based
Protocol: Immature human DCs (10^5) were pre-cooled on ice and subsequently incubated for 30 minutes on ice in culture medium with biotinylated Hp91 or Hp121 to allow peptide binding. Cells were washed and then incubated for the indicated time at 37° C. Cells were cytospun (Shandon Cytospin 2 centrintge) onto glass slides, fixed, pernieabiiized with acetone, and stained with Streptavidin-Alexa 488 (Invitrogen) to visualize biotinylated peptides and Hoechst 33258 DNA stain (Invitrogen). Cells were imaged on a Zeiss LSM confocal microscope.

[6] = test system: mouse BM-DCs; experiment: Stimulation of mouse BM-DCs, IL-6 by ELISA; format: cell-based
[7] = test system: phospho-p38 in J774 macrophages; experiment: Immunoblotting for phospho-p38; format: cell-based, mouse; details: after 40-60 minutes of stimulation, 200 μg ml^−1
[8] = test system: p-IRF3 in RAW 264.7 macrophages; experiment: Immunoblotting for phospho-IRF3; format: cell-based, mouse; details: after Hp91 stimulation 200 μg ml^−1
[9] = Spontaneous oxidation / DTT reduction of Hp91, HPLC percent dimer; format: physicochemical
[10] = test system: HER2; experiment: Immunization of HER2neu transgenic mice; format: in vivo
[11] = test system: B16 tumors; experiment: Intra-tumoral injection in B16 tumor bearing mice; format: in vivo; details: intra tumoral injection daily for 10 days
[12] = test system: tumor cells; experiment: Cytokine release from tumor cell lines by ELISA; format: cell-based; details: 100 μg/ml for 1 h, supernatants after 24 h
[13] = test system: Immature human DCs; experiment: Peptide binding/uptake by flow cytometry

CC(C)C[C@H](NC(=O)[C@H](Cc1ccccc1)NC(=O)[C@H](Cc1ccccc1)NC(=O)[C@H](C)NC(=O)[C@H](CO)NC(=O)[C@@H]1CCCN1C(=O)[C@@H]1CCCN1C(=O)[C@H](CCCNC(=N)N)NC(=O)[C@H](CCCCN)NC(=O)[C@@H]1CCCN1C(=O)[C@H](C)NC(=O)[C@H](CC(N)=O)NC(=O)[C@@H]1CCCN1C(=O)[C@H](CC(=O)O)NC(=O)CCCC[C@@H]1SC[C@@H]2NC(=O)N[C@@H]21)C(=O)N[C@@H](Cc1ccccc1)C(=O)N[C@@H](CS)C(=O)N[C@@H](CO)C(=O)N[C@@H](CCC(=O)O)C(=O)O [Hp91, DPNAPKRPPSAFFLFCSE] (Biotin-DPNAPKRPPSAFFLFCSE-OH)
secretion of the Th1 cytokines IFN-γ, IL-12 (p70), and TNF-α in serum [1]: Increased secretion
IFN-γ secretion in response to OVA-I ([2]; CD4+ depleted splenocytes): retained the ability to secrete IFN-γ
number of IFN-γ secreting cells ([2]; CD8+ depleted splenocytes, OVA-I stimulation): reduced to near background levels
number of antigen-specific IFN-γ secreting T cells ([2]; co-administered with OVA peptides (Hp91 250 and 500 μg), restimulated with CD8 epitope SIINFEKL): significant increase
number of antigen-specific IFN-γ secreting T cells ([2]; co-administered with OVA peptides, restimulated with CD4 epitope ISQAVHAAHAEINEAGR): but not when restimulated
number of INF-γ secreting cells ([2]; s.c. with OVA-I peptide, 250 μg peptide, freshly isolated and expanded splenocytes, vs PBS/OVA-I): significantly increased number
dose giving significant increase in IFN-γ secreting T cells (optimal dose) ([2]; titrated doses 0-250 μg with OVA peptide, 5 mice per group): 250 µg
dose dependence of IFN-γ secreting T cells ([2]; titrated doses co-injected with OVA peptide): a dose response was observed
IL-2 secretion ([3]; immunized with OVA peptides, OVA-II restimulated, vs PBS/OVA): low but significant increase
IL-2 secretion ([3]; immunized with whole OVA protein, OVA-I restimulated, vs PBS/OVA control): significantly increased
IL-4 ([3]; splenocyte cultures, any of the conditions): not detected
antibody responses ([4]; immunization with OVA peptides (OVA-I and OVA-II)): did not induce antibody responses
IgG2b and IgM OVA specific antibodies ([4]; immunization with OVA protein): Minimal increase
antibody response to OVA (dominated by IgG1 isotype) ([4]; immunization with OVA protein): promoted an antibody response
time to detection within DCs ([5]; biotinylated peptide 200 μg ml^−1): ≤ 5 min
time to binding of cells on ice ([5]; on ice, visible as rim around the cells): ≤ 30 min
IL-6 secretion ([6]; BM-DCs from MyD88 knockout mice vs wild type, 200 μg ml^−1, 24 h): strongly and significantly reduced
IL-6 secretion ([6]; BM-DCs from TLR4 knockout mice vs wild type): strongly and significantly reduced
IL-6 production ([6]; BM-DCs from TLR7 KO mice): comparable to wild type
IL-6 secretion ([6]; IFNαβR knockout mice): significantly reduced
IL-6 secretion ([6]; IL-1R knockout mice): No change
Phospho-p38 (p-p38) [7]: upregulated
Phospho-IRF3 (pIRF3) [8]: upregulated
peptide in dimer formation ([9]; PBS, RT, presence of oxygen, 96 h): greater than 80%
dimers as share of total peptide ([9]; PBS, RT, presence of oxygen, within 24 h): approximately 25%
reversibility of 24 h dimers ([9]; after 30 minutes at 10 mM DTT): all Hp91 peptide was found in a monomer state
percentage of tumor free mice ([10]; monitored after immunization): increasing the percentage of tumor free mice
HER2-specific immune responses by ELISPOT ([10]; s.c. with HER2, free or loaded in PLGA-nanoparticles, boosted twice): inducing HER2-specific immune responses
tumor growth [11]: tumor (melanoma) growth retardation
cytokine release from tumor cells [12]: causing cytokine release from tumor cells
uptake by DCs, dose dependence ([13]; 0, 10, 100 μg ml^−1, 30 minutes 37° C.): dose dependent uptake
DC uptake by temperature ([13]; 200 μg ml^−1, 30 minutes at 4, 16 or 37° C.): occurred at 37° C., but not 16° C., or 4 °C
peptide uptake ([13]; peroxide added to non-reduced peptide): may enhance peptide uptake by a small amount
peptide uptake ([13]; peroxide alongside the DTT): levels close to normal
